The target in the assay is SIRT7 (human (endogenous in breast cancer cells)) (UniProt Q9NRC8). Briefly: co-IP; anti-SIRT7 antibody on Protein A/G beads mixed with lysate of breast cancer cells (IP lysis buffer with protease inhibitors), 4 °C for 16 h, four washes with PBS, western blotting. Background: A western blot detects proteins with antibodies after separation by electrophoresis.

The chains behind the UniProt entries cited, without tags or fusion partners.
UniProt Q9NRC8: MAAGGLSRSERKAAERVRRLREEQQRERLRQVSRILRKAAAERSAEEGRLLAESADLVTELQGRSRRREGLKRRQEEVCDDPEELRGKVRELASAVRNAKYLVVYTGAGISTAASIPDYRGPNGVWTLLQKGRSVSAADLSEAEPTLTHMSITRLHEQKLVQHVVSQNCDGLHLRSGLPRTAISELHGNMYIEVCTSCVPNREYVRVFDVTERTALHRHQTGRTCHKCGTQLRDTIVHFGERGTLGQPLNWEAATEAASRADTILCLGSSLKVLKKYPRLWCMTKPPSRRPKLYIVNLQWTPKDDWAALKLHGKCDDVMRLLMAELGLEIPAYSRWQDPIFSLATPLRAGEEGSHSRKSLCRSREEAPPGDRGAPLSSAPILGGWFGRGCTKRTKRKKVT

Results are given in words; binding and its absence hold for the method and conditions named. Binding seen in cells or lysates may run through a third protein. Some results given as binding are weak or reduced against the parent protein; the word gives no strength.

B1: lamina-associated polypeptide 2α (LAP2α) (protein, UniProt P42166 1-694)
chain: MPEFLEDPSVLTKDKLKSELVANNVTLPAGEQRKDVYVQLYLQHLTARNRPPLPAGTNSKGPPDFSSDEEREPTPVLGSGAAAAGRSRAAVGRKATKKTDKPRQEDKDDLDVTELTNEDLLDQLVKYGVNPGPIVGTTRKLYEKKLLKLREQGTESRSSTPLPTISSSAENTRQNGSNDSDRYSDNEEGKKKEHKKVKSTRDIVPFSELGTTPSGGGFFQGISFPEISTRPPLGSTELQAAKKVHTSKGDLPREPLVATNLPGRGQLQKLASERNLFISCKSSHDRCLEKSSSSSSQPEHSAMLVSTAASPSLIKETTTGYYKDIVENICGREKSGIQPLCPERSHISDQSPLSSKRKALEESESSQLISPPLAQAIRDYVNSLLVQGGVGSLPGTSNSMPPLDVENIQKRIDQSKFQETEFLSPPRKVPRLSEKSVEERDSGSFVAFQNIPGSELMSSFAKTVVSHSLTTLGLEVAKQSQHDKIDASELSFPFHESILKVIEEEWQQVDRQLPSLACKYPVSSREATQILSVPKVDDEILGFISEATPLGGIQAASTESCNQQLDLALCRAYEAAASALQIATHTAFVAKAMQADISQAAQILSSDPSRTHQALGILSKTYDAASYICEAAFDEVKMAAHTMGNATVGRRYLWLKDCKINLASKNKLASTPFKGGTLFGGEVCKVIKKRGNKH
Regarding B1, the binding result is recorded as “binds”.
